## Percent effect of library compounds

Chains of the proteins cited; added tags and fusions are not shown. Residues count along the entry.
UniProt Q4DA54, 1-478: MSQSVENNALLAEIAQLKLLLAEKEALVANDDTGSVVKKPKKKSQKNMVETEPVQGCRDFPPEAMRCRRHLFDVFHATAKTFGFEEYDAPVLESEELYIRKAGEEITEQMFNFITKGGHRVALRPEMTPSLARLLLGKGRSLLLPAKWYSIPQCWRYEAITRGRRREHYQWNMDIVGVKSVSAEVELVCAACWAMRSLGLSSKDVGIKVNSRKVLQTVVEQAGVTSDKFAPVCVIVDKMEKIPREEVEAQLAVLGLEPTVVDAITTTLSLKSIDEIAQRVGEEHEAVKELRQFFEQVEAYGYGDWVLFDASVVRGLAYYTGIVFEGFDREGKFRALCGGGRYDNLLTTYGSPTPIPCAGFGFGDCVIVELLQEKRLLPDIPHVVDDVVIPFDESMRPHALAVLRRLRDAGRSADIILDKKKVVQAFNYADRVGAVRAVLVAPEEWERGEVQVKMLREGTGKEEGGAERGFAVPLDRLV
UniProt I6X8D2, whole entry: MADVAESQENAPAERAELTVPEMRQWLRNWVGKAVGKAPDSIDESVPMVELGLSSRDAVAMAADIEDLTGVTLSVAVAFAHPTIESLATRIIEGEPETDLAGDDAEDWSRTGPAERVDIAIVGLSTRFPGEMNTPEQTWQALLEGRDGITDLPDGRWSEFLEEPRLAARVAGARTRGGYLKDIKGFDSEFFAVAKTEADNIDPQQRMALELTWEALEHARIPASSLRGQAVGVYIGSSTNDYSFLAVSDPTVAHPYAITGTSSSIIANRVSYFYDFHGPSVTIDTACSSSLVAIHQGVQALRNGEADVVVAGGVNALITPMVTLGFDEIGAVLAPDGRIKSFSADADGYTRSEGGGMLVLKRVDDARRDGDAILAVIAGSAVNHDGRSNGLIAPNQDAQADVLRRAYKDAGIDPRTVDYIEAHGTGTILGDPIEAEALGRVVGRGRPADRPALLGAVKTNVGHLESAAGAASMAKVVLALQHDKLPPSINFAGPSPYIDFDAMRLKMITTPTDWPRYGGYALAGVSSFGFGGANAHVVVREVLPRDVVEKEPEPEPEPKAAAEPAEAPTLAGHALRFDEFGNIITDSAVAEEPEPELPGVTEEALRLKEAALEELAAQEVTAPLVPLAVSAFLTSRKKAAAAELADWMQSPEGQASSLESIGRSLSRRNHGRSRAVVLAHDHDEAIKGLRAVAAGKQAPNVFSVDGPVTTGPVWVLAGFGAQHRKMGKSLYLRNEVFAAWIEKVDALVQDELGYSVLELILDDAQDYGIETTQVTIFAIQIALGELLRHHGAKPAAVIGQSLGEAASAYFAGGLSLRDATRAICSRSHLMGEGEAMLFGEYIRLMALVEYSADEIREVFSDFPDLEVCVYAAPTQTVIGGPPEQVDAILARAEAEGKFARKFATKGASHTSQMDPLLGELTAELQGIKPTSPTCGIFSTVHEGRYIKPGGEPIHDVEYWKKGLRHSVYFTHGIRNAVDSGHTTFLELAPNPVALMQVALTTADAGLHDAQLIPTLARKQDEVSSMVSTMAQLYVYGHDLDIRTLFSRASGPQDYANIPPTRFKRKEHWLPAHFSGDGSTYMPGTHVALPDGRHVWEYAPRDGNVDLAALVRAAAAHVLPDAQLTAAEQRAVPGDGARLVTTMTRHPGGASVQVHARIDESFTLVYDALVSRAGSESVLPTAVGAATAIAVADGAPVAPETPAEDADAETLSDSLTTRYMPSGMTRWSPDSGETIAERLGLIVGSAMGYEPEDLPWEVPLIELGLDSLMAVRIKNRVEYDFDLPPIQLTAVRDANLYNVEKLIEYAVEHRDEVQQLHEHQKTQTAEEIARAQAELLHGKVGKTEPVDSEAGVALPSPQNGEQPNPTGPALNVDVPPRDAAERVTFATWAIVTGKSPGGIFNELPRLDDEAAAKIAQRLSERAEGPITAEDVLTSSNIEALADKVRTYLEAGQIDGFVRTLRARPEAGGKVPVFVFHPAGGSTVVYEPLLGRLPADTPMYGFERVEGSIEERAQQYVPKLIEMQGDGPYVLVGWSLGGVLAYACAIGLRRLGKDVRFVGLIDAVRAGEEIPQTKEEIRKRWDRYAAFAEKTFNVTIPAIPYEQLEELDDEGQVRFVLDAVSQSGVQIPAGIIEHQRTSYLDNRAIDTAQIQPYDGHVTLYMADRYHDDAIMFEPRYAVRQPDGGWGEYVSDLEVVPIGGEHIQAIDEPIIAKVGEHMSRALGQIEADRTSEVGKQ
UniProt P9WNZ1, whole entry: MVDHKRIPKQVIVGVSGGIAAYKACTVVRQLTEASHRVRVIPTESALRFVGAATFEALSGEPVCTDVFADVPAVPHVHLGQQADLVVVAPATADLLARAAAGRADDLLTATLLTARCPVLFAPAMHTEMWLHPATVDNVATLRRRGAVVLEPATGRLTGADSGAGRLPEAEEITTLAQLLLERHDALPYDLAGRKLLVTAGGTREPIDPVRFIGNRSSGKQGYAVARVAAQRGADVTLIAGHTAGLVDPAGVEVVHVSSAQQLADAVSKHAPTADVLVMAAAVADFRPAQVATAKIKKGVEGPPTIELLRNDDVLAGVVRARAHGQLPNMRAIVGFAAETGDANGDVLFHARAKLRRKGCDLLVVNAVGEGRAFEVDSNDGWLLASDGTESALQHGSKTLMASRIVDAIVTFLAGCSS
UniProt Q8IDJ8, 1-583: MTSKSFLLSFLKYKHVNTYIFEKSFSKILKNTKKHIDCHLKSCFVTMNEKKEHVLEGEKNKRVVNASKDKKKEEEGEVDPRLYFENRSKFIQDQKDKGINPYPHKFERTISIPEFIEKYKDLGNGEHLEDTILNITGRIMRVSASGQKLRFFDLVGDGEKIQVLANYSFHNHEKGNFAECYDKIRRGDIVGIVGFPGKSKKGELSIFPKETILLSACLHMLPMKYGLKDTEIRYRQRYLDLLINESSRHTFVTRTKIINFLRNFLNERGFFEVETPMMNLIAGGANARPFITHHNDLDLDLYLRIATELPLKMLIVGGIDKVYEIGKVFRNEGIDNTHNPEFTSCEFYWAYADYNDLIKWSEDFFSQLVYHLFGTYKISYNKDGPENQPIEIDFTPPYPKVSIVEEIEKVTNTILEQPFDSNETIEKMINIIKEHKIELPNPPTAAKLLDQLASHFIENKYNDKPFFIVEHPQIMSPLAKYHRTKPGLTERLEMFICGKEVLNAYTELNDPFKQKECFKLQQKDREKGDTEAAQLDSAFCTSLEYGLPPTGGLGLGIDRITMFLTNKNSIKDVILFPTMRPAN
UniProt P9WFT3, whole entry: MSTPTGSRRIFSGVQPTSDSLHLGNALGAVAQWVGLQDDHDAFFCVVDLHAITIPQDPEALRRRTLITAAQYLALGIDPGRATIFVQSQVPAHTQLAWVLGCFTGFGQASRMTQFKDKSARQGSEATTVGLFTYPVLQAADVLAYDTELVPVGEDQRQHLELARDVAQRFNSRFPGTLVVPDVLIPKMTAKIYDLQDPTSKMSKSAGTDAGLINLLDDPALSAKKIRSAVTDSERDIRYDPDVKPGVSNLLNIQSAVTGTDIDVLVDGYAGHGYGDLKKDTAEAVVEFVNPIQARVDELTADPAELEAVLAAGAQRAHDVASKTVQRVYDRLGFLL

Measurements from “University of Dundee, Small-Polar-MMV Screening Library” (2021), ChEMBL document CHEMBL3988442.

The filed quantity is “Percent Effect” (%). How 0% and 100% were set is not recorded. Most values in the screen are low, and negative values occur. The compounds are a random part of those screened. Two or more numbers in one place are separate tests of the same structure; such repeats can differ widely. A dash means the value is not listed here; it may have been measured.

TcHisRS: 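Enzyme assay of histidyl-tRNA synthetase; the read-out is not stated. Target: Histidine-tRNA ligase, Trypanosoma cruzi CL Brener (UniProt Q4DA54). Tested at 30 µM. The record gives no direction; compounds that gave an IC50 in retests scored well above the rest, so higher reads as stronger inhibition. Size under these conditions: about 69,000 compounds, about 31 of them at 50% or above in at least one test.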
Pks13 thioesterase: 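Polyketide synthase Pks13, Mycobacterium tuberculosis (UniProt I6X8D2). Enzyme assay of the thioesterase domain of polyketide synthase 13; the read-out is not stated. Concentration: 30 µM. The record gives no direction; the compounds picked for IC50 retests had high values, so higher reads as stronger inhibition. Of about 67,000 compounds tested this way, about 300 (0.46%) reached 50% or more in at least one test.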
CoaBC: 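Coenzyme A biosynthesis protein CoaBC, Mycobacterium tuberculosis (UniProt P9WNZ1). Enzyme assay of CoaBC with a phosphate dye (Biomol Green) read at 650 nm. Tested at 30 µM. Direction is inferred from only a few compounds that gave an IC50; most scored high, so higher reads as stronger inhibition. Most strong results did not repeat in a second test. About 67,000 compounds were tested under these conditions; 0.06% (about 40) showed 50% or more at least once.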
Leishmania in macrophages: 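Cell assay of Leishmania donovani living inside macrophages; the read-out is not stated. Concentration: 30 µM. Direction is inferred from retests: higher values go with stronger inhibition. About 69,000 compounds were tested under these conditions; 1.5% (about 1,000) showed 50% or more at least once.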
PfKRS1: 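Lysine-tRNA ligase, Plasmodium falciparum 3D7 (UniProt Q8IDJ8). Enzyme assay of the cytosolic lysyl-tRNA synthetase in 384-well plates, read by luminescence. Compounds at 30 µM. Direction is inferred from only a few compounds that gave an IC50; most scored high, so higher reads as stronger inhibition. About 69,000 compounds were tested under these conditions; 0.071% (about 49) showed 50% or more at least once.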
MtTrpRS: 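Enzyme assay of tryptophanyl-tRNA synthetase; the read-out is not stated. Target: Tryptophan-tRNA ligase, Mycobacterium tuberculosis (UniProt P9WFT3). Tested at 10 µM. Higher most likely means stronger inhibition; the record gives no direction and few retests gave an IC50. Of about 65,000 compounds tested this way, about 64 (0.098%) reached 50% or more in at least one test.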

| # | Compound | TcHisRS | Pks13 thioesterase | CoaBC | Leishmania in macrophages | PfKRS1 | MtTrpRS |
|---|---|---|---|---|---|---|---|
| 1 | `O=C(O)C(F)(F)F.O=C(O)C(F)(F)F.[H][C@@]12CCN(Cc3ccc(C)s3)C[C@]1([H])[C@@H](CN(C)Cc1ccco1)OC2` | - | - | - | -22.62 | - | - |
| 2 | `c1coc(-c2nc(CN3CCn4c(nnc4C4CC4)C3)cs2)c1` | 10 | 9.89 | -5.684 | 5.34 | 1.224 | -4.287 |
| 3 | `CN(CC1(O)CCCN(CCC2CCCCC2)C1=O)C1CCOCC1` (stereo unspecified) | 1.245 | -13.78 | 3.571 | 44.97 | 6.63 | -0.5329 |
| 4 | `Cc1ccc(N2CCN(C(=O)C(O)c3cccc(Cl)c3)CC2=O)cc1` (stereo unspecified) | 1.667 | -4.876 | 1.474 | 1.571 | 6.12 | -4.946 |
| 5 | `Cn1ncc2c1C(COCC1CC1)CN(CC1CC1)C2` (stereo unspecified) | 6.897 | -23.98 | 3.299 | 42.41 | -1.904 | -1.893 |
| 6 | `CC(NC(=O)CCc1nc(-c2nnc[nH]2)no1)c1ccc(F)cc1F` (stereo unspecified) | 8.929 | -14.38 | -0.1218 | 8.745 | 1.169 | 2.291 |
| 7 | `COc1ccccc1CN1C(=O)O[C@@H]2CN(c3nccs3)C[C@@H]21` | 6.224 | -12.4 | -3.571 | - | 1.913 | 2.309 |
| 8 | `COc1ccc(-c2csc3c2c(N)nc(=O)n3CCCN(C)C)cc1` | 0.5848 | -34.46 | 4.04 | 3.779 | 7.589 | 0.6302 |
| 9 | `CC(C)(C)NCc1ccc(OCc2ccc3c(c2)OCCO3)cc1.Cl` | - | - | - | 37.4 | - | - |
| 10 | `OCC1COCCN(Cc2cc(C3CCCCC3)no2)C1` (stereo unspecified) | 3.784 | -31.5 | 6.838 | 5.587 | 7.855 | -1.499 |
| 11 | `CC(C)(C)C(NC(=O)CCS(C)(=O)=O)c1ccc(F)cc1F` (stereo unspecified) | 6.667 | 1.13 | 3.65 | -8.686 | 2.913 | -0.9441 |
| 12 | `CCc1nc(CNc2ccc(C(=O)N3CCSCC3)cc2C)no1` | 3.448 | -11.51 | -2.194 | -6.04 | -0.7612 | 1.071 |
| 13 | `O=C(NCCN1CCOCC1)c1cc2c(s1)CCN2Cc1cccnc1` | 12.9 | -16.29 | -0.2114 | -2.627 and -3.103 | 7.061 | -5.426 |
| 14 | `Cc1nccn1CCCn1cncc1-c1ccc2c(c1)CC(C)N2C.Cl` (stereo unspecified) | - | - | - | 4.646 | - | - |
| 15 | `CC(C)N1CCC(C(=O)NC[C@H]2CCc3ccccc3O2)CC1` | 5.357 | -0.7894 | 0.609 | -6.77 | 4.372 | -1.861 |
| 16 | `CC1CCCCN1S(=O)(=O)NCCN/C(O)=C1/N=CC=CC1=O` (stereo unspecified) | 5.882 | -29.67 | 8.696 | 32.26 | 7.224 | -1.83 |
| 17 | `O=C(CNC(=O)c1cnc2ccccc2c1O)NCCCn1ccnc1` | 3.175 | -9.481 | 8.058 | 15.36 | 6.685 | 3.901 |
| 18 | `CCN(CC)CC[C@H]1CN(C(=O)C2CCC2)CC[C@H]1CC(=O)O` | 14.85 | -23.25 | 7.449 | -47.03 | 3.266 | -1.581 |
| 19 | `Cc1cnc(C(=O)N2CCc3c(nc(-c4ccncc4)[nH]c3=O)C2)cn1` | 4.95 | -32.3 | -0.8157 | 18.15 | 4.793 | -2.49 |
| 20 | `Cc1ccc(OCCN(C)C(=O)CCCN2CCCC2=O)c(C)c1` | 2.4 | -9.776 | 4.545 | 0.9196 | 0.522 | 1.771 |
| 21 | `Cc1ccn(CCC(=O)NCc2ccc(C)o2)n1` | 9 | -13.07 | -0.1318 | -7.213 | 3.724 | 3.223 |
| 22 | `Cc1cccc(CN(Cc2cccnc2)C2CC(C)(C)NC(C)(C)C2)n1.O=C(O)CC(O)(CC(=O)O)C(=O)O` | - | - | - | -3.523 and 11.48 | - | - |
| 23 | `CCOc1ccccc1OC1CCN(C(=O)c2cnsn2)CC1` | 4.678 | 2.302 | 2.806 | -21.43 | 0.6722 | -11.75 |
| 24 | `Cc1nnc(CCNC(=O)Nc2ccc(S(C)(=O)=O)cc2)[nH]1` | 3.03 | -24.55 | -3.406 | -33 | -6.224 | -7.48 |
| 25 | `CN(Cc1noc2c1CCCC2)C(=O)Nc1cccc(S(N)(=O)=O)c1` | 6.438 | -9.423 | -1.794 | 4.669 | 0.975 | 3.417 |
| 26 | `O=C(Nc1cccs1)N1CC(c2nc(C3CC3)no2)C1` | 2.062 | -19.34 | 0.6342 | 26.66 and 9.259 | 6.236 | -9.498 |
| 27 | `O=C(O)C(F)(F)F.O=C(O)C(F)(F)F.[H][C@@]12CCCO[C@]1([H])[C@H](N(C)C(C)C)CN(Cc1csc(C)n1)C2` | - | - | - | -4.795 and -2.885 | - | - |
| 28 | `c1cncc(CNc2ccccc2-c2nn[nH]n2)c1` | 3.125 | 19.73 | -0.7653 | 34.86 | 4.547 | 1.528 |
| 29 | `O=C(c1ccoc1)N1CCc2ncnc(NCc3ccccn3)c2CC1` | -16.88 | -38.81 | 0.2439 | 11.14 | -1.211 | 4.244 |
| 30 | `O=C(NCC1CC1)C1CN(C(=O)c2cccnc2)CC12CCOCC2` (stereo unspecified) | 2.174 | -5.327 | 2.662 | -3.991 | 7.917 | -0.3307 |
| 31 | `Cc1nc2ccccc2c(=O)n1CCC(=O)N1CCCCCC1` | 7.101 | -15.5 | 4.943 | 21.32 | 2.748 | -6.968 |
| 32 | `Cc1ccc(N(CCC#N)C(=O)CN2CCCC2c2cccs2)cc1` (stereo unspecified) | 1.538 | -47.55 | 2.236 | 32.55 | 2.063 | -1.652 |
| 33 | `O=C(c1cccc2c1OCCO2)N1CCCC1c1noc(C2CC2)n1` (stereo unspecified) | 2.305 | 6.201 | 7.5 | 37.25 | 0.8155 | 1.687 |
| 34 | `[H][C@@]12COC[C@]1(COCC(=O)N1CCCC1)CN(S(C)(=O)=O)C2` | - | - | - | -10.26 | - | - |
| 35 | `CCOCC(=O)N1CCC(c2nccn2CC2CC2)CC1` | 1.508 | -14.2 | -3.016 | 6.598 | 4.376 | -1.667 |
| 36 | `CCOCCCNC(=O)NCc1c(C)nn(C)c1C` | 1 | -36.64 | -0.3953 | -10.67 | 0.8522 | 14.59 |
| 37 | `COCCC(=O)N1CCC2(CCN(Cc3cccc(F)c3)CC2)C1` | 3.061 | 8.48 | 3.337 | - | 0.691 | -1.44 |
| 38 | `CN(C(=O)c1ccncc1)c1ccccc1S(C)(=O)=O` | 1.63 | 1.891 | 2.893 | -3.875 | 1.776 | 1.257 |
| 39 | `C[S+]([O-])c1ccc(CNc2ccc(F)cc2OC(F)F)cc1` (stereo unspecified) | 1.97 | 10.73 | 0.3205 | 26.75 | -1.133 | -1.852 |
| 40 | `Cn1ccnc1CN1CCC(c2ccnc(-c3cccc(O)c3)c2)C1` (stereo unspecified) | 8.287 | -31.61 | 2.746 | -4.099 | 0.3773 | -0.1638 |
| 41 | `CNS(=O)(=O)c1c(C)sc2ccccc12` | 3.704 | -12.86 | 4.97 | 15.9 | 3.352 | -0.983 |

Once more, the final 2:

Compound,TcHisRS,Pks13 thioesterase,CoaBC,Leishmania in macrophages,PfKRS1,MtTrpRS
Cn1ccnc1CN1CCC(c2ccnc(-c3cccc(O)c3)c2)C1 (stereo unspecified),8.287,-31.61,2.746,-4.099,0.3773,-0.1638
CNS(=O)(=O)c1c(C)sc2ccccc12,3.704,-12.86,4.97,15.9,3.352,-0.983